Experimental data reported in PubChem BioAssay AID1347075 (National Center for Advancing Translational Sciences (NCATS), 2019).
In all, about 400,000 compounds went through this assay and about 5,500 (1.4%) were called active. The inconclusive results got no clear call from the source; some entries with a clear call stand among them for comparison. Calls follow the shape of the dose curve; as a rule, active = well fitted cell-killing curve with a large enough effect; inconclusive = small, poorly fitted or top-dose-only effect, or effect the other way; inactive = flat fitted curve, though single readings scatter. Potencies of inconclusive entries are doubtful fits and often do not repeat.

assay: qHTS assay for MDR1-selective chemotherapeutics: Primary screen using the parental adenocarcinoma cell KB-3-1; conditions: KB-3-1 viability, CellTiter-Glo ATP luminescence, 72 h; activity change, negative = cytotoxic: at 46.1 µM (top of the series); also: nearly all actives have a fitted effect of over 60% in size
How it was run: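 Luminescent ATP read-out (CellTiter-Glo) measures survival of drug-naive KB-3-1 cells after 72 h compound exposure at 37 °C. Titration series was screened from lowest to highest concentration, with DMSO vehicle plates as background controls.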
% is scaled to controls: 0 for no effect and ±100 for the full control effect; potency is read from the fitted curve at half-maximal effect.

Compound	Potency	activity change, negative = cytotoxic
CCCN1C(=O)c2[nH]nc(-c3ccccc3O)c2C1c1ccc(OCc2ccccc2)c(OCC)c1 (stereo not given)	inconclusive: 18.4 µM [cytotoxic, single point]	
Cc1ccccc1OCC(=O)N/N=C/c1cccc(Oc2ccc([N+](=O)[O-])cc2[N+](=O)[O-])c1	inconclusive: 29.1 µM [cytotoxic, single point]	
O=C(Nc1ccc(N2CCCC2)cc1)c1cc2ccccc2o1		inactive: 1.42%
O=c1[nH]c2ccc(NC(=S)NCCc3ccccc3)cc2[nH]1	inconclusive: 8.2 µM [rising, partial curve, poor fit]	
COC(=O)C(CC(=O)c1ccc(Br)cc1)n1ccnc1 (stereo not given)		inactive: 12.3%
O=C(O)CCC(=O)Nc1ccc(Oc2ncnc3cc(Cl)ccc23)nc1	inconclusive: 18.4 µM [rising, partial curve]	
COc1ccc(-c2nc3ccccc3s2)cc1NC(=O)COc1ccccc1C	inconclusive: 18.4 µM [cytotoxic, single point]	
COc1cc(C(C)=O)ccc1OCc1cc(C(=O)N2CCSCC2)no1	inconclusive: 10.3 µM [rising, partial curve, poor fit]	
COc1ccc2c3c([nH]c2c1)[C@H]1C[C@H]2[C@H](C[C@@H](O)[C@H](OC)[C@H]2C(=O)O)CN1CC3		inconclusive: -9.23%
CC1Cc2ccccc2N1C(=O)C1CCCN(S(=O)(=O)c2cccc3cccnc23)C1 (stereo not given)	inconclusive: 29.1 µM [cytotoxic, single point]	
Cc1c(CCC(=O)NCCCn2ccnc2)c(=O)oc2c(C)c3oc4c(c3cc12)CCCC4	active: 23.1 µM	
Clc1ccc(CNc2ccccc2NCc2ccc(Cl)nc2)cn1	inconclusive: 20.6 µM [cytotoxic, single point]	
O=C(NNC(=S)Nc1cccc(C(F)(F)F)c1)c1ccccc1Cl	inconclusive: 29.1 µM [cytotoxic, single point]	
CCC1CSC(Nc2ccc(C(=O)/C=C/c3ccc(OC)c(OC)c3)cc2)=N1 (stereo not given)	inconclusive: 29.1 µM [cytotoxic, single point]	
COc1ccc(NC(=O)Nc2nnc([C@H]3C[C@H](O)[C@@H](CO)O3)s2)cc1	inconclusive: 25.9 µM [cytotoxic, single point]	
CCOc1ccc2nc(SCCNS(=O)(=O)c3ccccc3)sc2c1	inconclusive: 14.6 µM [cytotoxic, partial curve, poor fit]	
COc1ccc(OC)c(C(=O)c2c(N)c(-c3nc(-c4ccc(C)c(C)c4)cs3)c3ccccn23)c1		inactive: -2.87%
Cc1ccc(Cl)cc1N(CC(=O)Nc1cccc(N(C)S(C)(=O)=O)c1)S(C)(=O)=O		inactive: -21.1%
O=C(N/N=C/c1cc2ccccc2nc1Cl)/C(=C/c1cccs1)NC(=O)c1ccccc1	inconclusive: 18.4 µM [rising, partial curve, poor fit]	
C=C(C)COc1ccc(-c2[nH]ncc2-c2ccccc2OC)c(O)c1	inconclusive: 29.1 µM [cytotoxic, single point]	
CCN(CC)S(=O)(=O)c1ccc(C(=O)OCC(=O)Nc2ccc(-c3nc4ccc(C)cc4s3)cc2)cc1		inactive: -28.7%
OC(c1ccc(Cl)cc1)c1ncc(-c2ccc(Oc3ccccc3)cc2)[nH]1 (stereo not given)	inconclusive: 25.9 µM [cytotoxic, single point]	

Five entries drawn at random from those above:
Compound	Potency	activity change, negative = cytotoxic
OC(c1ccc(Cl)cc1)c1ncc(-c2ccc(Oc3ccccc3)cc2)[nH]1 (stereo not given)	inconclusive: 25.9 µM [cytotoxic, single point]	
Cc1c(CCC(=O)NCCCn2ccnc2)c(=O)oc2c(C)c3oc4c(c3cc12)CCCC4	active: 23.1 µM	
Cc1ccccc1OCC(=O)N/N=C/c1cccc(Oc2ccc([N+](=O)[O-])cc2[N+](=O)[O-])c1	inconclusive: 29.1 µM [cytotoxic, single point]	
COc1ccc(OC)c(C(=O)c2c(N)c(-c3nc(-c4ccc(C)c(C)c4)cs3)c3ccccn23)c1		inactive: -2.87%
O=C(NNC(=S)Nc1cccc(C(F)(F)F)c1)c1ccccc1Cl	inconclusive: 29.1 µM [cytotoxic, single point]	

Remaining list, next part.

Compound	Potency	activity change, negative = cytotoxic
O=[N+]([O-])c1cccnc1Oc1ccc(OCc2ccccc2)cc1	inconclusive: 14.6 µM [cytotoxic, partial curve, poor fit]	
CSc1ccc(CCNC(=O)C2CCCN(c3ncnc4c3nc3n4CCCCC3)C2)cc1 (stereo not given)	inconclusive: 29.1 µM [cytotoxic, single point]	
CC(C)(C)N(Cc1ccccc1)C(=O)COC(=O)c1ccc(Br)o1	inconclusive: 32.6 µM [rising, single point]	
CCN(c1ccccc1)C(CNS(=O)(=O)c1ccccc1)c1ccccc1 (stereo not given)	inconclusive: 29.1 µM [cytotoxic, single point]	
CO/N=C/C(=N\Nc1ccc(OC)cc1)C(=O)c1ccc(OC)cc1	inconclusive: 16.4 µM [cytotoxic, single point]	
NCCCn1c(C(=O)c2cc(Cl)c(N)c(Cl)c2)c2ccc([N+](=O)[O-])cc2[n+]1[O-]	inconclusive: 3.66 µM [cytotoxic, full curve]	
COc1cc([N+](=O)[O-])cc(/C=N/NC(=O)c2ccc(C)nc2)c1O	inconclusive: 29.1 µM [cytotoxic, single point]	
CS(=O)(=O)N(CC(=O)Nc1ccc(Cl)c(Cl)c1)C1CCCCC1	inconclusive: 29.1 µM [cytotoxic, single point]	
COc1ccc(OC)c(C2NC(=O)NC(C)=C2C(=O)Nc2cc(C)cc(C)c2)c1 (stereo not given)		inactive: 10.5%
C=CCNC(=S)NNC(=O)C(CCC(C)C)CC(C)O (stereo not given)	inconclusive: 29.1 µM [cytotoxic, single point]	
CC(=O)c1ncnn1CC(=O)c1ccc(Cl)cc1Cl	inconclusive: 14.6 µM [cytotoxic, partial curve, poor fit]	
COc1ccc(CCNC(=O)c2cc(-c3cc(C)ccc3O)n[nH]2)cc1OC	inconclusive: 25.9 µM [cytotoxic, single point]	
CCCN1C(=O)c2[nH]nc(-c3ccccc3O)c2C1c1ccc(OCc2ccccc2)c(OC)c1 (stereo not given)	active: 20.6 µM	
CC(C)c1nc(N2CCN(C(=O)c3ccco3)CC2)c(C#N)c2c1COC(C)(C)C2	inconclusive: 18.4 µM [cytotoxic, single point]	
CCOc1ccc(Oc2c(/C=N/NC(=O)COc3ccccc3OC)c(C)nn2-c2ccccc2)cc1	inconclusive: 18.4 µM [cytotoxic, single point]	
Cc1cc(/C=N/n2cnnc2)c(O)c([N+](=O)[O-])c1		inactive: 9.04%
Cc1cccc(N2CCN(S(=O)(=O)c3c(C)noc3/C=C/N(C)C)CC2)c1C	inconclusive: 18.4 µM [cytotoxic, single point]	
CC1(C)Cc2ccccc2C(N/N=C/c2ccc(Cl)cc2)=N1	inconclusive: 16.4 µM [cytotoxic, single point]	
CCOC(=O)N1CCC(N(CCN(C)C)C(=S)Nc2ccccc2OCC)CC1		inactive: -0.773%
Cc1ccc(S(=O)(=O)N2CCCCC2)cc1NC(=O)CNC(C)c1ccc(Cl)c(Cl)c1 (stereo not given)	active: 14.6 µM	
COC(=O)[C@@]1(Cc2ccc(F)cc2)[C@H]2c3cc(C(=O)N4CCCC4)n(CCF)c3C[C@H]2CN1C(=O)c1ccccc1	inconclusive: 29.1 µM [cytotoxic, single point]	
NC(=O)c1cccc(-c2ccnc3c2CC(C(=O)NCc2ccc(F)c(F)c2)O3)c1 (stereo not given)	inconclusive: 16.4 µM [cytotoxic, single point]	

Compound	Potency	activity change, negative = cytotoxic
N=C(N)c1ccc(N=Nc2c(O)ccc3c2[nH]c2ccccc23)cc1	inconclusive: 20.6 µM [cytotoxic, single point]	
NC(=O)c1ccccc1OCC(=O)N1CCC(Cc2ccccc2)CC1	inconclusive: 2.06 µM [cytotoxic, full curve]	
COc1ccccc1-c1noc(CCC(=O)Nc2cc(C(F)(F)F)ccc2Cl)n1	inconclusive: 16.4 µM [cytotoxic, partial curve, poor fit]	
CCCCCC(=O)N1C[C@@H](O)[C@H](n2cc(-c3ccc(F)cc3)nn2)C[C@@H]1c1ccccc1	inconclusive: 23.1 µM [cytotoxic, single point]	
CC(C)[C@H](CO)Nc1nc(Nc2ccc(Cl)c(C(=O)O)c2)c2ncn(C(C)C)c2n1		inactive: -2.05%
CCC1CCCCN1C(=O)Cn1c(=O)oc2cc(S(=O)(=O)N3CCCCC3)ccc21 (stereo not given)		inactive: -5.78%
COc1cccc(N2CCN(CC(=O)NC(=O)NC3CCCCC3)CC2)c1		inactive: -10.5%
O=C(NCCc1ccccc1)c1sc2ncccc2c1-n1cccc1	inconclusive: 4.11 µM [cytotoxic, partial curve, poor fit]	
CCOc1ccc(-n2c(C)nc3cc(C(=O)NCC4CCCO4)ccc32)cc1 (stereo not given)		inactive: 3.88%
COc1cc2c(oc(=O)c3cc(C)cc(OC)c32)c2c(C3OC(C)C(O)C(C)(O)C3O)ccc(O)c12 (stereo not given)	inconclusive: 16.4 µM [cytotoxic, single point]	
O=C(CSc1n[nH]c(-c2cccs2)n1)N1CCCc2ccccc21		inactive: -26.9%
COc1cc(OC)c(OC)cc1CNCCNC(=O)c1ccco1		inactive: 12.5%
CCn1c(O)c(N=NC(=O)CNC(=O)c2ccccc2F)c2ccccc21	inconclusive: 29.1 µM [cytotoxic, single point]	
Cc1nn(Cc2ccccc2)c(C)c1C(=O)N1CCN(S(=O)(=O)/C=C/c2ccccc2)CC1		inactive: 0.38%
COc1ccc(COc2cc(-c3cccc(OC)c3)nc3ccc(NC(=O)c4ccc(Cl)cc4)cc23)cc1	inconclusive: 29.1 µM [cytotoxic, single point]	
O=C(N/N=C/c1ccccc1OC(=O)c1ccc2c(c1)OCO2)c1cccc(F)c1	inconclusive: 20.6 µM [cytotoxic, single point]	
CCCN(CCC)c1nc(Cl)nc(NCCN2CCOCC2)n1		inactive: 0.217%
N#Cc1cc2cc3c(cc2nc1Cl)OCCO3	inconclusive: 32.6 µM [rising, partial curve, poor fit]	
Cc1csc(C(C)N(C)C(=O)c2ccc(OC3CCN(Cc4ccccn4)CC3)cc2)n1 (stereo not given)		inactive: -9.56%
COc1ccc(C(C)(O)c2nc(-c3ccccc3)cs2)cc1 (stereo not given)	inconclusive: 29.1 µM [cytotoxic, single point]	
CCc1nc2ccc(C(=O)NCc3ccc4c(c3)OCO4)cn2c1N(C)CCC(C)C		inactive: -0.136%
